The data set is described as follows: Apparent permeability of the compound in pig LLC-PK1 cells.

In the case of `C[C@@H](O)[C@H]1C(=O)N2C(C(=O)OCOC(=O)C(C)(C)C)=C(SC3CN(C4=NCCS4)C3)[C@H](C)[C@H]12` [TEBIPENEM PIVOXIL], the apparent permeability coefficient (Papp) is 10.1 ×10⁻⁶ cm/s.

Usually Papp stands for a coefficient for how fast a substance crosses the barrier.
